We go through one molecule from PMC8024396, “Biochemical and structural characterization of the BioZ enzyme engaged in bacterial biotin synthesis pathway” (Nature Communications, 2021).

In the test the target is Agrobacterium tumefaciens BioZ (Agrobacterium tumefaciens). As to the kind of experiment: crystal structure; AtBioZ, hanging drop, 0.2 M sodium nitrate, 20% PEG 3350, 16 °C; space group P212121, two protomers per asymmetric unit; 1.99 Å; both purified.

These are yes or no findings as the source states them, for the method shown. Some entries that bind do so weakly or less than the wild type.

B1: Agrobacterium tumefaciens BioZ (enzyme, UniProt A0AA44F6N6 1-328, looked up)
chain: MQTRSSRMAGFGHAVPARCVRNAEIETRLGLEAGWIERRTGIRTRYWAQEGETLSGLAEKAGRMALENARIGAEDIALTLLATSTPDHLLPPSAPLLAHRLGLTQSGAIDLAGACSGFLYALTLADGFVRTHGRAVLVVAANILSRRINPAERATAVLFADAAGAVVLVPCRDAQRGLLSADLVSDGSGYDLIQIAAGGSSQPFSNDTEAEDTLMTMRDGREVFSRAVATMTQTSQRALQRAEMTATDIQRFLPHQANARMFDAVCGNIGIDRQKTVRTVETFGNSSAATIPLSLSVSNAERPITEGETLLLTAAGAGMTGGAVVYRG
notes: BioZ (FabH2), atypical beta-ketoacyl-ACP synthase III of Agrobacterium tumefaciens; bioZ gene cloned into pET28a; apparent mass ~36 kDa; 654 protein residues in the two protomers of PDB 6KUE; also called AtBioZ; FabH2; source: E. coli BL21 with pET28::atbioZ, purified (Ni-NTA, TEV cleavage, Superdex 200 Increase SEC); not shown: His6, N-terminal, cleaved
For B1, the binding result is reported as “binds”.
